Data as given in PubChem BioAssay AID1259254 (NCATS, 2017).
The whole screen tested about 59,000 reagents; this is an unselected part. About 1,550 of all reagents (2.6%) were called active. 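G2 share is only a proxy for re-replication; each gene was hit by three separate siRNAs, and active genes were retested.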 Raw values vary from plate to plate and are shown uncorrected. Unmarked entries are inactive. Reagents against one gene are numbered here. Reagent sequences are not shown. Not stated in the record: the amount of reagent.

Test: 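Finding genes that stop cells copying their DNA twice in one cycle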 (primary screen)
System: human HCT116 colorectal cancer cells
Knock-down reagent: single siRNA against human genes
Time to read-out: 3 days
Detection: 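Nuclei stained with Hoechst and imaged; cell-cycle phase assigned by DNA content; G2 share scaled per plate, non-targeting siRNA 0%, GMNN siRNA 100%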
Scale: G2 robust z-score and G2 cells, % of GMNN control: higher = more G2 cells, more excess DNA replication; raw share of cells in G2: higher = larger share of cells with G2 DNA content
Hit rule: 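An siRNA counts as active if its G2 robust z-score lies at least 5 MADs above the screen median; here such calls match roughly 38% of GMNN control or more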

gene symbol	reagent no.	G2 robust z-score	G2 cells, % of GMNN control	raw share of cells in G2 (%)
TTPA (GeneID 7274)	1	0.327	5.27	7.82
TTPA (GeneID 7274)	2	2.49	20.5	11.2
TTPA (GeneID 7274)	3	0.309	5.14	6.18
TBC1D25 (GeneID 4943)	1	3.46	27.3	15.8
TBC1D25 (GeneID 4943)	2	0.121	3.82	4.5
TBC1D25 (GeneID 4943)	3	0.0605	3.39	6.49
TM6SF2 (GeneID 53345)	1	0.206	4.42	5.18
TM6SF2 (GeneID 53345)	2	0.0989	3.66	5.81
TM6SF2 (GeneID 53345)	3	-0.936	-3.62	2
HMGN1P31 (GeneID 728111)	1	-0.437	-0.107	3.56
HMGN1P31 (GeneID 728111)	2	-0.429	-0.0494	3.52
HMGN1P31 (GeneID 728111)	3	0.739	8.17	5.75
ZNF561 (GeneID 93134)	1	1.08	10.6	6.73
ZNF561 (GeneID 93134)	2	-0.752	-2.33	2.36
ZNF561 (GeneID 93134)	3	0.269	4.86	5.23
ANKRD9 (GeneID 122416)	1	1.21	11.5	8.7
ANKRD9 (GeneID 122416)	2	0.219	4.51	4.67
ANKRD9 (GeneID 122416)	3	-0.19	1.63	2.29
NEUROG1 (GeneID 4762)	1	0.219	4.51	7.1
NEUROG1 (GeneID 4762)	2	-0.494	-0.51	3.03
NEUROG1 (GeneID 4762)	3	-0.303	0.837	5.8
MARCHF4 (GeneID 57574)	1	1.82	15.8	9.93
MARCHF4 (GeneID 57574)	2	-0.0809	2.4	5.1
MARCHF4 (GeneID 57574)	3	-0.0863	2.36	6.62
LYRM2 (GeneID 57226)	1	0.355	5.47	6.5
LYRM2 (GeneID 57226)	2	-0.919	-3.5	2.79
LYRM2 (GeneID 57226)	3	0.269	4.86	4.57
ASAH2B (GeneID 653308)	1	-0.346	0.53	3.37
ASAH2B (GeneID 653308)	2	0.791	8.53	5.31
ASAH2B (GeneID 653308)	3	1	10	7.68
VSIG1 (GeneID 340547)	1	1.16	11.1	7.8
VSIG1 (GeneID 340547)	2	-0.321	0.707	3.57
VSIG1 (GeneID 340547)	3	1.4	12.8	9.36
NEDD4 (GeneID 4734)	1	1.66	14.7	11.3
NEDD4 (GeneID 4734)	2	-0.0328	2.74	6.42
NEDD4 (GeneID 4734)	3	-0.202	1.55	3.71
LOC728868 (retired record) (GeneID 728868)	1	0.101	3.68	5.34
LOC728868 (retired record) (GeneID 728868)	2	2.27	18.9	9.42
LOC728868 (retired record) (GeneID 728868)	3	-0.593	-1.2	2.64
TCF4 (GeneID 6925)	1	0.117	3.79	6.28
TCF4 (GeneID 6925)	2	-1.27	-5.93	2.41
TCF4 (GeneID 6925)	3	-1.22	-5.65	2.27
NMNAT1 (GeneID 64802)	1	-0.804	-2.69	3.25
NMNAT1 (GeneID 64802)	2	-0.869	-3.14	3.23
NMNAT1 (GeneID 64802)	3	-0.765	-2.42	4.65
SLC34A2 (GeneID 10568)	1	-0.893	-3.32	2.77
SLC34A2 (GeneID 10568)	2	1.04	10.3	10.5
SLC34A2 (GeneID 10568)	3	-0.113	2.17	6.64
PKM (GeneID 5315)	1	-0.393	0.205	5.68
PKM (GeneID 5315)	2	-0.936	-3.62	2.75
PKM (GeneID 5315)	3	1.11	10.8	9.03
RASSF3 (GeneID 283349)	1	0.38	5.64	8.34
RASSF3 (GeneID 283349)	2	-0.355	0.472	5.14
RASSF3 (GeneID 283349)	3	-0.701	-1.96	3.57
CLEC3A (GeneID 10143)	1	0.913	9.39	9.57
CLEC3A (GeneID 10143)	2	-0.361	0.426	4.12
CLEC3A (GeneID 10143)	3	1.84	15.9	9.21
BAD (GeneID 572)	1	2.26	18.9	11.1
BAD (GeneID 572)	2	-1.09	-4.7	3.4
BAD (GeneID 572)	3	-0.724	-2.12	3.2
PLXNA1 (GeneID 5361)	1	0.151	4.03	6.94
PLXNA1 (GeneID 5361)	2	-1.16	-5.19	3.66
PLXNA1 (GeneID 5361)	3	-0.861	-3.09	2.93
C6orf58 (GeneID 352999)	1	1.86	16.1	9.5
C6orf58 (GeneID 352999)	2	-0.166	1.8	4.05
C6orf58 (GeneID 352999)	3	-0.61	-1.33	3.65
ATR (GeneID 545)	1	-0.167	1.79	6.2
ATR (GeneID 545)	2	0.179	4.23	6.84
ATR (GeneID 545)	3	0.258	4.78	5.71

Sorted by “G2 robust z-score” (lowest first): 3 of the entries above.
gene symbol	reagent no.	G2 robust z-score	G2 cells, % of GMNN control	raw share of cells in G2 (%)
MARCHF4 (GeneID 57574)	3	-0.0863	2.36	6.62
MARCHF4 (GeneID 57574)	2	-0.0809	2.4	5.1
LYRM2 (GeneID 57226)	1	0.355	5.47	6.5
